{"source": "patent US20250059278A1", "binders": {"B1": {"name": "MSLN single-domain antibody 3C6 (VHH)", "VHH": "EVQLVESGGGLVQAGESLRLSCAVSGNIGSIRHMGWHRQDPGKERELVATITTVGTTYYANFVKGRFTISRDNAKNTVYLQMNSLKPEDTGVYYCRATAHPTDYWGQGTQVTVSS"}}, "target": "monkey MSLN-his (Kaika Biotech, MSL-CM180) (monkey (cyno))", "assay": "ELISA screening on coated MSLN-his", "note": "These are yes or no findings as the source states them, for the method shown. Binding can be weak; no strength is given."}
{"binder": "B1", "values": [{"measurement": "binding", "result": "binds"}]}
